Counter-ions that a name gives are not always drawn. ± gives the standard deviation of the averaged measurements. Some of the results follow. This data set is noisy: repeats of one test often differ as much as different tests do.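 Cell counts came from imaging DAPI-stained nuclei, excluding as dead any cells lacking phalloidin-stained cytoplasm. Counts per well were normalized to the median vehicle-well count on that plate, and the values were averaged over two replicate plates.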
Test system: OVCAR8
Test: cell count relative to DMSO vehicle (fold change); higher = more surviving senescent cells (less killing)
Details: senescence inducer: cisplatin 10 µM 48 h, then 6 d recovery (CP senescent), exposure time 24 h

| SMILES | cell count (compound dose 1 µM) | cell count (compound dose 5 µM) |
| --- | --- | --- |
| Cc1ccc(S(=O)(=O)Nc2cc(-c3ccc(C#N)s3)ccc2C)cc1 | 0.809 ± 0.2 | 0.877 ± 0.011 |
| Cc1ncc(COP(=O)([O-])[O-])c(CN(CCN(CC(=O)O)Cc2c(COP(=O)([O-])O)cnc(C)c2O)CC(=O)O)c1O.[Mn].[Na+].[Na+].[Na+] | 0.871 ± 0.066 | 0.59 ± 0.32 |
| O=c1c(O)c(-c2ccc(O)c(O)c2)oc2cc(O)cc(O)c12 [Quercetin] | 1.24 ± 0.16 | 1.12 ± 0.2 |
| COc1ccc(C2=N[C@H](c3ccc(Cl)cc3)[C@H](c3ccc(Cl)cc3)N2C(=O)N2CCNC(=O)C2)c(OC(C)C)c1 [Nutlin-3b] | 0.712 ± 0.022 | 0.56 ± 0.18 |
| CCCCCOC(=O)Nc1nc(=O)n([C@@H]2O[C@H](C)[C@@H](O)[C@H]2O)cc1F [Capecitabine] | 1 ± 0.072 | 0.976 ± 0.1 |
| CN(C)CC[C@H](CSc1ccccc1)Nc1ccc(S(=O)(=O)NC(=O)c2ccc(N3CCC(C)(C)CC3)cc2)cc1[N+](=O)[O-] | 1.23 ± 0.064 | 0.625 ± 0.19 |
| NC(=O)c1ccc(-c2cc(-c3ccc([N+](=O)[O-])cc3)nc(-c3ccco3)c2)cc1 | 1.18 ± 0.05 | 1.06 ± 0.24 |
| Nc1c(C(=O)NCc2ccc(C(=O)NCCCC3CCCCC3)cc2)cnn1-c1ccccc1 | 1.28 ± 0.058 | 1.05 ± 0.0035 |
| CC(O)(P(=O)(O)O)P(=O)(O)O [Etidronic acid] | 1.01 ± 0.028 | 1.052 ± 0.0071 |
| CC[C@@H]1/C=C(\C)C[C@H](C)C[C@H](OC)[C@H]2O[C@@](O)(C(=O)C(=O)N3CCCC[C@H]3C(=O)O[C@H](/C(C)=C/[C@@H]3CC[C@@H](O)[C@H](OC)C3)[C@H](C)[C@@H](O)CC1=O)[C@H](C)C[C@@H]2OC [Ascomycin] | 0.96 ± 0.2 | 0.806 ± 0.042 |
| COc1ccc(N2C(=O)/C(=C\c3ccc([N+](=O)[O-])s3)SC2=S)cc1 | 0.583 ± 0.053 | 0.338 ± 0.2 |
| C/C=C(/C)C(=O)O[C@H]1[C@H](OC(C)=O)[C@@]2(CO)C(CC1(C)C)C1=CCC3[C@@]4(C)CCC(O[C@@H]5O[C@H](C(=O)O)[C@@H](O[C@@H]6O[C@H](CO)[C@@H](O)[C@H](O)[C@H]6O)[C@H](O)[C@H]5O[C@@H]5O[C@H](CO)[C@@H](O)[C@H](O)[C@H]5O)[C@](C)(CO)C4CC[C@@]3(C)[C@]1(C)C[C@H]2O.C/C=C(\C)C(=O)O[C@H]1[C@H](OC(C)=O)[C@@]2(CO)C(CC1(C)C)C1=CCC3[C@@]4(C)CCC(O[C@@H]5O[C@H](C(=O)O)[C@@H](O[C@@H]6O[C@H](CO)[C@@H](O)[C@H](O)[C@H]6O)[C@H](O)[C@H]5O[C@@H]5O[C@H](CO)[C@@H](O)[C@H](O)[C@H]5O)[C@](C)(CO)C4CC[C@@]3(C)[C@]1(C)C[C@H]2O (stereo partly specified) [Escin] | 1.18 ± 0.12 | 0.827 ± 0.32 |
| Cc1cc(Nc2cc(N3CCN(C)CC3)nc(/C=C/c3ccccc3)n2)n[nH]1 [ENMD-2076 L-(+)-Tartaric acid] | 1.1 ± 0.042 | 0.694 ± 0.18 |
| Cc1cc(Nc2cc(N3CCN(C)CC3)nc(/C=C/c3ccccc3)n2)n[nH]1 | 1.473 ± 0.0071 | 0.863 ± 0.0028 |
| COc1ccc(C2CC(c3ccccc3)=NN2c2ccc(S(N)(=O)=O)cc2)cc1 (stereo unspecified) | 0.975 ± 0.078 | 0.959 ± 0.35 |
| CCCCOc1nc(N)c2c(n1)N(Cc1cccc(CN3CCCC3)c1)CC(=O)N2 [Vesatolimod] | 0.739 ± 0.033 | 0.759 ± 0.1 |
| CN(C)c1cccc(-c2c3c(=O)n(-c4ccccc4Cl)[nH]c3cc(=O)n2C)c1 [Setanaxib] | 1.03 ± 0.079 | 0.581 ± 0.5 |
| CCCCCCCCCCCC1=C(O)C(=O)C=C(O)C1=O [Embelin] | 1.36 ± 0.37 | 1.07 ± 0.021 |
| CCC(Sc1nnc2c(n1)[nH]c1ccccc12)C(=O)N1c2ccccc2Sc2ccccc21 (stereo unspecified) [Inauhzin] | 0.9425 ± 0.005 | 0.758 ± 0.39 |
| CC(=O)N[C@H](Cc1ccc(O)cc1)C(=O)N[C@H](CCCN=C(N)N)C(=O)N[C@H](Cc1ccccc1)C(N)=O | 0.813 ± 0.17 | 0.86 ± 0.028 |
| O=C(NS(=O)(=O)c1ccc(Br)s1)c1ccc(Cl)cc1Cl [Tasisulam] | 0.966 ± 0.16 | 0.92 ± 0.12 |

| SMILES | cell count (compound dose 1 µM) | cell count (compound dose 5 µM) |
| --- | --- | --- |
| C/C(=N\NC(=O)c1cccc(S(=O)(=O)N2CCOCC2)c1)c1cc(Cl)ccc1O | 0.867 ± 0.04 | 0.782 ± 0.085 |
| CC(Nc1nc(N2CCCC2)nc2ccccc12)c1ccccc1 (stereo unspecified) [Importazole] | 0.996 ± 0.11 | 0.85 ± 0.16 |
| C=CCSCC(N)C(=O)O (stereo unspecified) | 0.995 ± 0.29 | 1.06 ± 0.034 |
| COc1cc2c(c(OC)c1OC)-c1c(cc3c(c1OC)OCO3)C[C@H](C)[C@H](C)C2 [Gomisin N] | 1.13 ± 0.25 | 1.02 ± 0.078 |
| CCOC(=O)C1=CCCC[C@H]1S(=O)(=O)Nc1ccc(F)cc1Cl [Resatorvid] | 1.02 ± 0.13 | 0.644 ± 0.11 |
| Nc1cccc2c1CN(C1CCC(=O)NC1=O)C2=O (stereo unspecified) [Lenalidomide] | 0.912 ± 0.17 | 0.892 ± 0.056 |
| COc1nc(-c2ccc3c(c2)OCO3)n(-c2ccc(NC(=O)CSc3ccccc3)cc2)n1 [SecinH3] | 0.832 ± 0.13 | 0.73 ± 0.18 |
| O=C(Nc1ccc(-c2ccnc(Nc3ccc(N4CCOCC4)cc3)n2)cc1)C1CCCN1 (stereo unspecified) | 1.08 ± 0.035 | 1.25 ± 0.1 |
| O=C(Nc1ccc(Cl)c(Cl)c1)Nc1ccc2nnsc2c1 | 1.16 ± 0.091 | 1.43 ± 0.22 |
| CN1C(=O)[C@@H](NC(=O)c2cc(Cc3ccccc3)on2)COc2ccccc21 | 1.29 ± 0.083 | 0.859 ± 0.076 |
| COc1c(/C=C/C(=O)c2ccc(O)cc2)ccc(O)c1O [Licochalcone B] | 1.006 ± 0.0085 | 1.09 ± 0.14 |
| O=C(O)CC1CC(c2ccccc2)=NO1 (stereo unspecified) | 1.03 ± 0.079 | 1.13 ± 0.13 |
| COC[C@H](NC(=O)c1cnc(C)s1)C(=O)N[C@@H](COC)C(=O)N[C@@H](Cc1ccccc1)C(=O)[C@@]1(C)CO1 [Oprozomib] | 0.807 ± 0.08 | 0.181 ± 0.09 |
| CC(CCC(=O)NCCS(=O)(=O)O)C1CCC2C3C(O)CC4CC(O)CCC4(C)C3CCC12C (stereo unspecified) [Taurochenodeoxycholic acid (sodium salt)] | 1.21 ± 0.079 | 0.903 ± 0.03 |
| COc1ccc(CC[C@@H](OC(=O)[C@@H]2CCCCN2C(=O)[C@H](c2cc(OC)c(OC)c(OC)c2)C2CCCCC2)c2cccc(OCCN3CCOCC3)c2)cc1OC | 1.19 ± 0.044 | 0.642 ± 0.4 |
| COc1ccc(-c2cc(C(F)F)nn2-c2ccc(S(N)(=O)=O)cc2)cc1F | 0.887 ± 0.069 | 0.638 ± 0.16 |
| S=C(N/N=C1/CCCc2cccnc21)N1CCN(c2ccccn2)CC1 | 1.2 ± 0.1 | 0.64 ± 0.3 |
| NC(=O)[C@H](CCCN=C(N)CCl)NC(=O)c1ccccc1 [Cl-amidine (hydrochloride)] | 1.21 ± 0.14 | 1.23 ± 0.16 |
| COc1cc(/C=C/c2ccc(O)c(O)c2)cc(OC)c1 [3'-Hydroxypterostilbene] | 1.1 ± 0.1 | 0.829 ± 0.059 |
| C[C@H](Oc1cc(-c2cnn(C3CCNCC3)c2)cnc1N)c1c(Cl)ccc(F)c1Cl [(S)-Crizotinib] | 1.09 ± 0.11 | 0.973 ± 0.25 |
| O=C1CC[C@H](N2Cc3c(OCc4ccc(CN5CCOCC5)cc4)cccc3C2=O)C(=O)N1 [Iberdomide] | 1.21 ± 0.025 | 0.702 ± 0.19 |

A second format for part of the listing above:
SMILES | cell count (compound dose 1 µM) | cell count (compound dose 5 µM)
CC(CCC(=O)NCCS(=O)(=O)O)C1CCC2C3C(O)CC4CC(O)CCC4(C)C3CCC12C (stereo unspecified) [Taurochenodeoxycholic acid (sodium salt)] | 1.21 ± 0.079 | 0.903 ± 0.03
COc1ccc(CC[C@@H](OC(=O)[C@@H]2CCCCN2C(=O)[C@H](c2cc(OC)c(OC)c(OC)c2)C2CCCCC2)c2cccc(OCCN3CCOCC3)c2)cc1OC | 1.19 ± 0.044 | 0.642 ± 0.4
COc1ccc(-c2cc(C(F)F)nn2-c2ccc(S(N)(=O)=O)cc2)cc1F | 0.887 ± 0.069 | 0.638 ± 0.16
S=C(N/N=C1/CCCc2cccnc21)N1CCN(c2ccccn2)CC1 | 1.2 ± 0.1 | 0.64 ± 0.3
NC(=O)[C@H](CCCN=C(N)CCl)NC(=O)c1ccccc1 [Cl-amidine (hydrochloride)] | 1.21 ± 0.14 | 1.23 ± 0.16
COc1cc(/C=C/c2ccc(O)c(O)c2)cc(OC)c1 [3'-Hydroxypterostilbene] | 1.1 ± 0.1 | 0.829 ± 0.059

Later entries:

| SMILES | cell count (compound dose 1 µM) | cell count (compound dose 5 µM) |
| --- | --- | --- |
| CC1(C)CC[C@]2(C(=O)O)[C@H](O)C[C@]3(C)C(=CC[C@@H]4[C@@]5(C)CC[C@H](O)C(C)(C)[C@@H]5CC[C@]43C)[C@H]2C1 [Echinocystic acid] | 1.05 ± 0.23 | 0.984 ± 0.015 |
| CN(CCOc1ccc(CC2SC(=O)NC2=O)cc1)c1ccccn1 (stereo unspecified) | 0.983 ± 0.11 | 0.778 ± 0.23 |
| Oc1c2ccccc2c2c3c(cccc13)N=N2 | 0.912 ± 0.14 | 0.484 ± 0.15 |
| CCCCC(CC)CNC(=N)NC(=N)NCCCCCCNC(=N)NC(=N)NCC(CC)CCCC (stereo unspecified) [Alexidine (dihydrochloride)] | 1.03 ± 0.13 | 0.722 ± 0.13 |
| Cc1[nH]c(/C=C2\C(=O)Nc3ccc(S(=O)(=O)N(C)c4cccc(Cl)c4)cc32)c(C)c1C(=O)N1CCN(C)CC1 | 1.12 ± 0.092 | 1.43 ± 0.15 |
| CCCCCCc1ccc(O)cc1O | 1.22 ± 0.013 | 1.18 ± 0.23 |
| CCCCc1nc(C)c(CC(=S)N(C)C)c(=O)n1Cc1ccc(-c2ccccc2-c2nnn[nH]2)cc1 [Fimasartan] | 0.781 ± 0.11 | 0.638 ± 0.23 |
| CC(C)=CCC[C@](C)(O)C1CC=C(C)CC1 (stereo partly specified) | 0.974 ± 0.28 | 1.14 ± 0.061 |
| COc1ccc(C(=O)C2CCN(CC(=O)N(Cc3nc4c(c(=O)[nH]3)COCC4)CC3CC3)CC2)cc1 | 0.947 ± 0.16 | 0.964 ± 0.16 |
| Nc1ncnc2c1c(-c1cnc3[nH]ccc3c1)nn2C1CCCC1 | 0.435 ± 0.0099 | 0.186 ± 0.046 |
| Cn1c(=O)n(CCC(C)(C)O)c2cc(Nc3nc(Cl)ncc3Cl)ccc21 | 1.35 ± 0.16 | 0.813 ± 0.38 |
| CCCCC(=O)N(Cc1ccc(-c2ccccc2-c2nn[nH]n2)cc1)[C@H](C(=O)O)C(C)C.CCOC(=O)[C@H](C)C[C@@H](Cc1ccc(-c2ccccc2)cc1)NC(=O)CCC(=O)O [Sacubitril/Valsartan] | 0.833 ± 0.052 | 0.999 ± 0.21 |
| CC(C)=CC[C@H](O)C1=CC(=O)c2c(O)ccc(O)c2C1=O [(-)-Alkannin] | 0.968 ± 0.054 | 0.932 ± 0.15 |
| CCNC(=O)C#Cc1ccc2c(C(=Nc3ccc(CN(C)C)cc3)c3ccccc3)c(O)[nH]c2c1 | 1.25 ± 0.02 | 0.436 ± 0.02 |
| C=C1C(=O)O[C@@H]2C[C@@]3(C)CCC[C@H](C)C3=C[C@H]12 [Alantolactone] | 1.02 ± 0.034 | 0.405 ± 0.2 |
| O[C@H]1[C@H]2c3cc4c(cc3CN3CCC(=C[C@@H]1O)[C@H]23)OCO4 [Lycorine] | 0.806 ± 0.11 | 0.549 ± 0.24 |
| CCc1cccc2c1N(C)Cc1cc3c(cc1-2)OCO3 | 0.938 ± 0.05 | 0.7535 ± 0.0021 |
| CCOc1cc(C(C)(C)C)ccc1C1=N[C@@](C)(c2ccc(Cl)cc2)[C@@](C)(c2ccc(Cl)cc2)N1C(=O)N1CCN(CC(=O)N2CCOCC2)CC1 [p53 and MDM2 proteins-interaction-inhibitor (chiral)] | 1.22 ± 0.16 | 1.23 ± 0.19 |
| Cn1c(=O)cc(N2CCC[C@@H](N)C2)n(Cc2ccccc2C#N)c1=O [Alogliptin (Benzoate)] | 1.14 ± 0.095 | 0.952 ± 0.041 |
| O=c1c2cc(O)c(O)cc2oc2cc(O)c([C@@H]3O[C@H](CO)[C@@H](O)[C@H](O)[C@H]3O)c(O)c12 [Mangiferin] | 1.35 ± 0.1 | 1.13 ± 0.047 |
| N[C@@H](CC(=O)N1CCN(C(c2ccc(F)cc2)c2ccc(F)cc2)CC1)C(=O)N1Cc2ccccc2C1 | 1.12 ± 0.11 | 1.22 ± 0.03 |

— the supplement of paper PMC12462457
